Measurements published in the supplement of paper PMC11732987, “Enantioselective OTUD7B fragment discovery through chemoproteomics screening and high-throughput optimisation” (Communications Chemistry, 2025).
Some of the results follow. The data scatter; read single values as rough.

Sequences of proteins named here, by UniProt entry; tags and fusion partners are left off. A change or cut given only in a name is not applied to a line headed by its entry. Residues count along the entry.
UniProt Q9Y4F3: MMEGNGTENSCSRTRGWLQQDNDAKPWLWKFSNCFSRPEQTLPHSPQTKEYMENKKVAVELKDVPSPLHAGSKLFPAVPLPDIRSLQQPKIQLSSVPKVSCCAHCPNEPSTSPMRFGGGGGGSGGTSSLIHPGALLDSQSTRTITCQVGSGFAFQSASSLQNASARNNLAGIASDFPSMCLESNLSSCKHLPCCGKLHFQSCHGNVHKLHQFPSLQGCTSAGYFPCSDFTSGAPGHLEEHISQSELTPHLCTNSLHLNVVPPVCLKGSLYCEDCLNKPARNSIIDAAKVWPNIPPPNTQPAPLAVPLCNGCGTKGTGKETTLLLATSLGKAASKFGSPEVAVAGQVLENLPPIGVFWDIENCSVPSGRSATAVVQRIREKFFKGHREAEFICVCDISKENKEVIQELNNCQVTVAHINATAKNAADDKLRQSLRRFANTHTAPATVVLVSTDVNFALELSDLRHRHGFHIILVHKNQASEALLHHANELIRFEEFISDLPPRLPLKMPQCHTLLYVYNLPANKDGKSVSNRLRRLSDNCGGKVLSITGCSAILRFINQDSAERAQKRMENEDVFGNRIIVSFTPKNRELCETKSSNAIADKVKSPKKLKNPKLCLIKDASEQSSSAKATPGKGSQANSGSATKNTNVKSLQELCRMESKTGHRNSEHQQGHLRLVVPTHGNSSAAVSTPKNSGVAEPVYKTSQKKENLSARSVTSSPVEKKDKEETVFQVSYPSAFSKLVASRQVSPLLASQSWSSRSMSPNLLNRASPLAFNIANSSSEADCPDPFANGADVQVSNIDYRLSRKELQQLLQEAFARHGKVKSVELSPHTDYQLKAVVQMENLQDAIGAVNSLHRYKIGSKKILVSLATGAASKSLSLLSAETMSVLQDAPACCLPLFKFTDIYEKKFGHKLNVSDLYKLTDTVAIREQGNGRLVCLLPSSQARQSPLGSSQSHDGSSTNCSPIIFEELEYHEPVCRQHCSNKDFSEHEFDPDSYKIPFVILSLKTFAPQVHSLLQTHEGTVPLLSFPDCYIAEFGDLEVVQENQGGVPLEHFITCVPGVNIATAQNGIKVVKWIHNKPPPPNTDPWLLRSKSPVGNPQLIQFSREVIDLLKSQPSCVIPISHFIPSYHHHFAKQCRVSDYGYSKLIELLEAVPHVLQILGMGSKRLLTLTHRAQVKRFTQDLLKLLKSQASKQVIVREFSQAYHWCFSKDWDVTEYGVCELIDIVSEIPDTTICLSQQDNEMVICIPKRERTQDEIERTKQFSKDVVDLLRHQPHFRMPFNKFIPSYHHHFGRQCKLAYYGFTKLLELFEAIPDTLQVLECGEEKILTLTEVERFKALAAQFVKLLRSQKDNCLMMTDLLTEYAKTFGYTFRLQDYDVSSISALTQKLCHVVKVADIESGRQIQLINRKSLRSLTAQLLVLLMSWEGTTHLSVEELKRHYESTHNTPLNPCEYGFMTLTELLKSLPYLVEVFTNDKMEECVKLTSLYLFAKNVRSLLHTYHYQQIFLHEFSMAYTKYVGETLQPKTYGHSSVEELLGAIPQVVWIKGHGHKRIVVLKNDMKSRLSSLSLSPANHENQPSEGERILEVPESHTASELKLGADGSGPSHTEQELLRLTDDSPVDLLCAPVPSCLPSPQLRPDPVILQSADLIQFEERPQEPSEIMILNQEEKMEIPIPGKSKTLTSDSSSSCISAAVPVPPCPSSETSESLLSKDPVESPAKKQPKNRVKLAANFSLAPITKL
UniProt Q96AG4: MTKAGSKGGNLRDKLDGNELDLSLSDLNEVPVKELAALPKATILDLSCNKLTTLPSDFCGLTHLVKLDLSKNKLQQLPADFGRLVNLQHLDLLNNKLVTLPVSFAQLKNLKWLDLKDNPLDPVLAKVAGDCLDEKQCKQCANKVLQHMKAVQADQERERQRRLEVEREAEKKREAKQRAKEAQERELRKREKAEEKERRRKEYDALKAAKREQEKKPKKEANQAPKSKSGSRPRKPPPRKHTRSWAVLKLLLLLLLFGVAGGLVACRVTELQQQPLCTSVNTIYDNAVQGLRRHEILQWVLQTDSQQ
UniProt Q9NXL9, 866-886: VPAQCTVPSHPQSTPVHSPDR
UniProt Q9Y6D9: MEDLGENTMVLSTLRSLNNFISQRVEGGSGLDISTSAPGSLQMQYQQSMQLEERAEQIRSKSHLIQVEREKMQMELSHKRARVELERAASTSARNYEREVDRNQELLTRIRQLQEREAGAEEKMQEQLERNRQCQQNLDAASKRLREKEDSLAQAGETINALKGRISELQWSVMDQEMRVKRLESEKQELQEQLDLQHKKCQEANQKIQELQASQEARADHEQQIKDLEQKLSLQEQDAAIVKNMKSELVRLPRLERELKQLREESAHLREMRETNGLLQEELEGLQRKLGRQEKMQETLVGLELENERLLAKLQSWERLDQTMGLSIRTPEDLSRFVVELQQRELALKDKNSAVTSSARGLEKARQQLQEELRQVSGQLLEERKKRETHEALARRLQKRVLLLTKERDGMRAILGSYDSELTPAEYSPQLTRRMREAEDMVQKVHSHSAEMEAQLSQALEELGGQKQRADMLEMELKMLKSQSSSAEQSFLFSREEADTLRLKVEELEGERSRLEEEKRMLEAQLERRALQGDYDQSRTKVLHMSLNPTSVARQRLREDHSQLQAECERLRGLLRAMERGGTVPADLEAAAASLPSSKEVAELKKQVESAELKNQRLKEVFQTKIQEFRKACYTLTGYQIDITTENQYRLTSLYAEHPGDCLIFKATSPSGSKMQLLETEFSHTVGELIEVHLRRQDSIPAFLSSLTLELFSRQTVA
UniProt O95232: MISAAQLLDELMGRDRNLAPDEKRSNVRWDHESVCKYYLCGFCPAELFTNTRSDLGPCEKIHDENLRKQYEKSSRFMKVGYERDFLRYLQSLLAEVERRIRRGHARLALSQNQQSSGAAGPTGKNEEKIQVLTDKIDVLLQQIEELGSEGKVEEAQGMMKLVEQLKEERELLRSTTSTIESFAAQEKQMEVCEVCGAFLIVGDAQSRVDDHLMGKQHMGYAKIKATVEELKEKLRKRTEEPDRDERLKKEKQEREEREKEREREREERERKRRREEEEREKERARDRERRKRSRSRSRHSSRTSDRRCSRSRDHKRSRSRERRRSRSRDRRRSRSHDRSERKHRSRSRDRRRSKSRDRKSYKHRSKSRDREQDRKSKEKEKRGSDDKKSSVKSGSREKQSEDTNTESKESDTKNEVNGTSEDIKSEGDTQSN
UniProt Q86V48: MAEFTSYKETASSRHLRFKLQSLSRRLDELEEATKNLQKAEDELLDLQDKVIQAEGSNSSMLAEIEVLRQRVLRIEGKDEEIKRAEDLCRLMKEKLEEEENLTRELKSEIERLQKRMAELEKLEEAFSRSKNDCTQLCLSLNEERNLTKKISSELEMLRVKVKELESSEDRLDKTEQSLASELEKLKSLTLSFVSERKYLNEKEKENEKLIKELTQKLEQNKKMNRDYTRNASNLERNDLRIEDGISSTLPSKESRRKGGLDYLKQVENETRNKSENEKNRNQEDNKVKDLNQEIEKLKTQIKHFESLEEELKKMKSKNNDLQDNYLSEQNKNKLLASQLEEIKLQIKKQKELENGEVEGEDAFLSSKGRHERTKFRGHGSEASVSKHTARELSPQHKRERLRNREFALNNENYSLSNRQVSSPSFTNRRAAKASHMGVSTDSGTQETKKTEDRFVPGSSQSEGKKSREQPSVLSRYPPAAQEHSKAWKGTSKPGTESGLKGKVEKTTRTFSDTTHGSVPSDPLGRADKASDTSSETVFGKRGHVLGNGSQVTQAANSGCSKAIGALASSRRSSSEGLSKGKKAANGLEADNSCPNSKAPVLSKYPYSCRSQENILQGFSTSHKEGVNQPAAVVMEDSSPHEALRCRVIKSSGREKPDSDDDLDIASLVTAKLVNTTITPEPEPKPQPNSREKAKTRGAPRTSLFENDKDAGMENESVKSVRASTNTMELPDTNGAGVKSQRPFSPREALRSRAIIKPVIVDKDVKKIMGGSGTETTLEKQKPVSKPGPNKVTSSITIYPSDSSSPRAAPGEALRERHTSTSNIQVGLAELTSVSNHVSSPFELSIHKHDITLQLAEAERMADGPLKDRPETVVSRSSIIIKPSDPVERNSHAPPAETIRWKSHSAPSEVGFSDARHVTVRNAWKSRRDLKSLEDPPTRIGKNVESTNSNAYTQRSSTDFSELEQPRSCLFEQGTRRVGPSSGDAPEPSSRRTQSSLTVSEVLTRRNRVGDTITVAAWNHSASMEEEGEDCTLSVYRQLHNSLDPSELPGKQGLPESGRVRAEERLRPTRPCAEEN
UniProt O14733, 113-136: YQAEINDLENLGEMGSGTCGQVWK
UniProt Q96N66: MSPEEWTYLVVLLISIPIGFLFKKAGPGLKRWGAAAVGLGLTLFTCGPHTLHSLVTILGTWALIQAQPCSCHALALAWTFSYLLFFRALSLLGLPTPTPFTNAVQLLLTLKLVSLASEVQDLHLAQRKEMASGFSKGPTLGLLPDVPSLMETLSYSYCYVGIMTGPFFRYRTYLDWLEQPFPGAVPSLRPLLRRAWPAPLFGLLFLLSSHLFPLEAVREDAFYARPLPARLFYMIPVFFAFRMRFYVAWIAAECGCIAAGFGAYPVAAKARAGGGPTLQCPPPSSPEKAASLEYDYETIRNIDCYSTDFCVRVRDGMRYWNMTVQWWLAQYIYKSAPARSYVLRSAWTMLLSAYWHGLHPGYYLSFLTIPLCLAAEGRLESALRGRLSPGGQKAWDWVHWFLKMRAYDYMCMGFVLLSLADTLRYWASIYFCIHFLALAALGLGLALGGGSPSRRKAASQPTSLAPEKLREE
UniProt Q3MHD2: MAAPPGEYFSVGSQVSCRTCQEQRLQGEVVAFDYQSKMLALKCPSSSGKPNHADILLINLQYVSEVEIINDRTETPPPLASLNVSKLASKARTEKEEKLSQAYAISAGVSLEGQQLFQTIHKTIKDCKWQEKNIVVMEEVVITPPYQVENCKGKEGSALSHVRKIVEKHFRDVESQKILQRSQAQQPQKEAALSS
UniProt Q6ZN16: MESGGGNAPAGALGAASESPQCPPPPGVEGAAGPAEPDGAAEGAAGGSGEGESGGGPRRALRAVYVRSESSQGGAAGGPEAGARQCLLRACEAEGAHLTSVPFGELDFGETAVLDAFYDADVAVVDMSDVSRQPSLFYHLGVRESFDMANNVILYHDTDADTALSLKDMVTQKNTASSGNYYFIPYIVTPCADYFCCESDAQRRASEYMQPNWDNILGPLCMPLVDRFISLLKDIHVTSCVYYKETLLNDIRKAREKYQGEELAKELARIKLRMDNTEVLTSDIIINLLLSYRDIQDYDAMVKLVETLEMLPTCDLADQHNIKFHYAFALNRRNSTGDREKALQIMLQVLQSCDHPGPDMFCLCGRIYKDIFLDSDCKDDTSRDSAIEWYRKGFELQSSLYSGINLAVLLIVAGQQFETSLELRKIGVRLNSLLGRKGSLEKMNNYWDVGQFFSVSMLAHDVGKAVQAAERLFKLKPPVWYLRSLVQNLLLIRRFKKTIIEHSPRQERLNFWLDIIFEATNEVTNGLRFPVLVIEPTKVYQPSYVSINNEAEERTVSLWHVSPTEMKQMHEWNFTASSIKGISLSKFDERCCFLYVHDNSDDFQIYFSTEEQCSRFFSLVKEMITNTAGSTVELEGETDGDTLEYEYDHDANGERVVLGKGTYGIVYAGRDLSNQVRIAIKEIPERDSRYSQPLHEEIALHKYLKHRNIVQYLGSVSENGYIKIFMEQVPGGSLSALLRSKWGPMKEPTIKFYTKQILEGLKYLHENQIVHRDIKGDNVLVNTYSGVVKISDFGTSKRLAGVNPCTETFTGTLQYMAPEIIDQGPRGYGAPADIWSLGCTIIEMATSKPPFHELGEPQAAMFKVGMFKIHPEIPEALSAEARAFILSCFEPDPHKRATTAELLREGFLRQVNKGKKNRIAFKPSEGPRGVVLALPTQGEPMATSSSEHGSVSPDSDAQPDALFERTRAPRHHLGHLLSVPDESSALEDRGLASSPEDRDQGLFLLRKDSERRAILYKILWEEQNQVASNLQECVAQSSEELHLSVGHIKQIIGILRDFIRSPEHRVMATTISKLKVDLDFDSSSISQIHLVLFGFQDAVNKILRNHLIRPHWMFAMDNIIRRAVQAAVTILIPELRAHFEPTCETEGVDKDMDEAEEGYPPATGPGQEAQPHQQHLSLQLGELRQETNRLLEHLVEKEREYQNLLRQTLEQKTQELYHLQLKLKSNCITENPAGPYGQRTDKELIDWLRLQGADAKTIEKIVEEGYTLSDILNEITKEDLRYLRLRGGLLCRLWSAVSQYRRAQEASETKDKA
UniProt P55145: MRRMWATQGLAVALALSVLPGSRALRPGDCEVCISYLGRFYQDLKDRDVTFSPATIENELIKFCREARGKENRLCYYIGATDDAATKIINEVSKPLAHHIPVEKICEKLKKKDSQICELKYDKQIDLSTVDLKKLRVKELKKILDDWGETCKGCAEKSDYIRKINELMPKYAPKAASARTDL

These targets were tested with ClCC(=O)N[C@H]1CCCc2ccccc12 (assay: log2 mean competition ratio of IA-DTB cysteine labelling (DMSO/compound) (log2 ratio); higher = stronger cysteine engagement by compound). Conditions: 50 µM; treatment time: 4 h; cell line lysate: HEK293T.
Description: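 IA-DTB competitive cysteine chemoproteomics in HEK293T RIPA lysate. Lysates were treated with compound 29 or 30 at 50 or 200 µM for 4 h, then IA-DTB (500 µM, 1 h), trypsin-digested, NeutrAvidin-enriched and analysed by diaPASEF. Competition ratio = intensity DMSO / intensity compound (n=4 treated, n=64 DMSO); binding: mean log2 CR ≥ 1 and p ≤ 0.05 plus QC filters. Target is the cysteine site.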

Target	log2 mean competition ratio
MARF1 C539 (UniProt Q9Y4F3)	-0.235
LRRC59 C48 (UniProt Q96AG4)	0.0946
MATK C53 (UniProt P42679)	-0.127
MCM9 C870 (UniProt Q9NXL9)	0.00356
MAD1L1 C134 (UniProt Q9Y6D9)	-0.317
MAP2K2 C384 (UniProt P36507)	0.075
MCMBP C249 (UniProt Q9BTE3)	-0.00808
LUC7L3 C58 (UniProt O95232)	0.191
MAP7D1 C382 (UniProt Q3KQU3)	0.00443
LRRC1 C224	-0.181
MAPKAPK3 C379 (UniProt Q16644)	0.0979
MCM7 C378 (UniProt P33993)	-0.152
MCM9 C529 (UniProt Q9NXL9)	0.281
MARS1 C38	-0.0564
MAST2 C686 (UniProt Q6P0Q8)	-0.247
MAP3K4 C1484 (UniProt Q9Y6R4)	0.224
MARF1 C654 (UniProt Q9Y4F3)	0.0118
LUZP1 C1072 (UniProt Q86V48)	-0.088
MAPK3 C82	-0.178

Target	log2 mean competition ratio
MAP2K7 C280 (UniProt O14733)	0.304
LRRC41 C123 (UniProt Q15345)	0.144
MBOAT7 C280 (UniProt Q96N66)	0.254
MCM2 C584 (UniProt P49736)	-0.38
MAP2K1 C341 (UniProt Q02750)	-0.169
MAZ C371 (UniProt P56270)	-0.14
MCTS2P C14, A0A3B3IRV3	-0.7
LSM12 C17 (UniProt Q3MHD2)	-0.434
MAP3K6 C962 (UniProt O95382)	-0.185
MAP3K15 C1227 (UniProt Q6ZN16)	0.365
MCM3 C148 (UniProt P25205)	0.342
MANF C151 (UniProt P55145)	-0.167
MAP3K21 C859	-0.205
MBTD1 C185 (UniProt Q05BQ5)	0.0725
LTN1 C91 (UniProt O94822)	-0.0109
MAD1L1 C568 (UniProt Q9Y6D9)	0.293
MAP7D2 C163	0.263
MACROD1 C199 (UniProt Q9BQ69)	0.0265
MAP2K7 C131 (UniProt O14733)	0.113

Same assay, conditions: 200 µM; treatment time: 4 h; cell line lysate: HEK293T

Target	log2 mean competition ratio
MARF1 C539 (UniProt Q9Y4F3)	0.269
LRRC59 C48 (UniProt Q96AG4)	0.23
MATK C53 (UniProt P42679)	-0.201
MCM9 C870 (UniProt Q9NXL9)	-0.406
MAD1L1 C134 (UniProt Q9Y6D9)	-0.124
MAP2K2 C384 (UniProt P36507)	-0.0255
MCMBP C249 (UniProt Q9BTE3)	-0.125
LUC7L3 C58 (UniProt O95232)	0.0569
MAP7D1 C382 (UniProt Q3KQU3)	-0.31
LRRC1 C224	-0.144
MAPKAPK3 C379 (UniProt Q16644)	0.0411
MCM7 C378 (UniProt P33993)	-0.129
MCM9 C529 (UniProt Q9NXL9)	0.115
MARS1 C38	-0.277
MAST2 C686 (UniProt Q6P0Q8)	0.116
MAP3K4 C1484 (UniProt Q9Y6R4)	-0.103
MARF1 C654 (UniProt Q9Y4F3)	0.263
LUZP1 C1072 (UniProt Q86V48)	0.134
MAPK3 C82	-0.0444

Target	log2 mean competition ratio
MAP2K7 C280 (UniProt O14733)	0.192
LRRC41 C123 (UniProt Q15345)	0.484
MBOAT7 C280 (UniProt Q96N66)	-0.267
MCM2 C584 (UniProt P49736)	-0.204
MAP2K1 C341 (UniProt Q02750)	0.328
MAZ C371 (UniProt P56270)	0.0256
MCTS2P C14, A0A3B3IRV3	0.072
LSM12 C17 (UniProt Q3MHD2)	-0.0106
MAP3K6 C962 (UniProt O95382)	0.37
MAP3K15 C1227 (UniProt Q6ZN16)	-0.183
MCM3 C148 (UniProt P25205)	-0.228
MANF C151 (UniProt P55145)	0.189
MAP3K21 C859	0.364
MBTD1 C185 (UniProt Q05BQ5)	-0.368
LTN1 C91 (UniProt O94822)	0.185
MAD1L1 C568 (UniProt Q9Y6D9)	0.325
MAP7D2 C163	-0.00812
MACROD1 C199 (UniProt Q9BQ69)	0.174
MAP2K7 C131 (UniProt O14733)	-0.155
